In patent publication US20190381086A1, “INHIBITION OF NEDDYLATION USING GLYCYL-tRNA SYNTHETASE INHIBITORS” (The Scripps Research Institute, priority 2015, published 2019):
At least one structure is not confirmed: it was looked up by name or label, or the drawing left a doubt.

Columns and labels:
[1] = system: cullin neddylation in MDA-MB-231 cells; experiment: Neddylation in MDA-MB-231 cells (non-reducing SDS-PAGE); assay type: cell-based, human; details: cells at 80% confluence treated overnight; FIG. 19
Protocol: MDA-MB-231 cells at 80% confluence were treated overnight with each compound and then the cells were harvested and lysed with the acid lysis buffer and subjected to non-reducing SDS-PAGE. SerSA and TyrSA are analogs of Ser-AMP and Tyr-AMP, reaction intermediate of SerRS and TyrRS, respectively. MLN4924 was used as a positive control for the experiment.
Cell experiments were also performed to study the inhibiting activity of GlySA to GlyRS. MDA-MB-231 cells at 80% confluence were treated with compounds for overnight and then the cells were harvested and lysed with the acid lysis buffer and subjected to non-reducing SDS-PAGE. SerSA and TyrSA are analogs of Ser-AMP and Tyr-AMP, reaction intermediate of SerRS and TyrRS, respectively. […] Concentration range of GlySA in inhibiting neddylation in MDA-MB-231 cells were also evaluated and the results are shown in FIG. 20.

MDA-MB-231 cells = experiment: Lung metastasis assay; assay type: in vivo, NOD.Cg-Prkdc^scid Il2rg mice; details: 4 mg/kg tail vein twice per week; lungs 14 days after MDA-MB-231 injection; FIG. 27
[2] = target: T1, GlyRS binding to activated NEDD8 E2 (Ubc12^N8) (Homo sapiens, UniProt P41250); experiment: GlyRS-Ubc12^N8 interaction by biolayer interferometry (Octet); details: GlyRS 0.25 μM, immobilized Ubc12^N8 100 nM, 30° C., compared with DMSO; FIG. 17
T1 construct: made in house
T1 sequence (P41250 55-739 limits assumed): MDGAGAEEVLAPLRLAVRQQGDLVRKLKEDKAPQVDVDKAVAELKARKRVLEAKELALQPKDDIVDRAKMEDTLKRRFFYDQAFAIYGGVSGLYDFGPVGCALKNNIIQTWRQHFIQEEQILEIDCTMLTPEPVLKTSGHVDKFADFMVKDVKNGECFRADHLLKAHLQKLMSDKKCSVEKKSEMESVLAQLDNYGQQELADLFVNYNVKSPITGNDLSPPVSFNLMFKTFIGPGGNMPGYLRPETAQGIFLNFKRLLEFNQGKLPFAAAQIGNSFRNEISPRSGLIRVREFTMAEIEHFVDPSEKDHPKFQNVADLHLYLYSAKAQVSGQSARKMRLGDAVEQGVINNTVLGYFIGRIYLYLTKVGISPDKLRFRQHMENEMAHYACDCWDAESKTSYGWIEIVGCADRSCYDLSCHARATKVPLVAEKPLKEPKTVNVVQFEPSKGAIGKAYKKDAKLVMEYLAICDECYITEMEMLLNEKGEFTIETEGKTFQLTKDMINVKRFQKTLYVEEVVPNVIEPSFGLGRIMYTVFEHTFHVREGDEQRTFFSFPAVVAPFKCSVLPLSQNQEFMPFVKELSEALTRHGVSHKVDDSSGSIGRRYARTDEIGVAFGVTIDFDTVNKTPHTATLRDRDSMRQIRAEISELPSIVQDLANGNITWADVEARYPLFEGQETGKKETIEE

[3] = target: T2, recombinant human APPBP1-UBA3 (Homo sapiens, UniProt Q8TBC4); experiment: In vitro NEDD8 activation assay; assay type: biochemical; details: 300 μM, APPBP1-UBA3 2.7 μM, 37° C., 1 hour; FIG. 18
T2 sequence (Q8TBC4 1-463): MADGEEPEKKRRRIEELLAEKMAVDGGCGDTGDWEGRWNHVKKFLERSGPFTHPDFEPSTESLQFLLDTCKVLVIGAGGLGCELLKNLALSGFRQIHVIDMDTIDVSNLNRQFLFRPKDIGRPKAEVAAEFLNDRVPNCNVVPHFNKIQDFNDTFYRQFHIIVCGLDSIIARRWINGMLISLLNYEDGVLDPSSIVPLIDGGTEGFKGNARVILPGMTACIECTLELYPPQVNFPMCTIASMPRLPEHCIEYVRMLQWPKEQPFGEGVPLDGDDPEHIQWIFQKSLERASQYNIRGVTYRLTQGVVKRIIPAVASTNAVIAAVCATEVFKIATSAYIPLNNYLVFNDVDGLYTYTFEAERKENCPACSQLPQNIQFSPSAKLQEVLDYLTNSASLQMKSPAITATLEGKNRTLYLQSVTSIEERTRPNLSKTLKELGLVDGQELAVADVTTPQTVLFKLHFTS
T2 sequence (Q13564 1-534 partner): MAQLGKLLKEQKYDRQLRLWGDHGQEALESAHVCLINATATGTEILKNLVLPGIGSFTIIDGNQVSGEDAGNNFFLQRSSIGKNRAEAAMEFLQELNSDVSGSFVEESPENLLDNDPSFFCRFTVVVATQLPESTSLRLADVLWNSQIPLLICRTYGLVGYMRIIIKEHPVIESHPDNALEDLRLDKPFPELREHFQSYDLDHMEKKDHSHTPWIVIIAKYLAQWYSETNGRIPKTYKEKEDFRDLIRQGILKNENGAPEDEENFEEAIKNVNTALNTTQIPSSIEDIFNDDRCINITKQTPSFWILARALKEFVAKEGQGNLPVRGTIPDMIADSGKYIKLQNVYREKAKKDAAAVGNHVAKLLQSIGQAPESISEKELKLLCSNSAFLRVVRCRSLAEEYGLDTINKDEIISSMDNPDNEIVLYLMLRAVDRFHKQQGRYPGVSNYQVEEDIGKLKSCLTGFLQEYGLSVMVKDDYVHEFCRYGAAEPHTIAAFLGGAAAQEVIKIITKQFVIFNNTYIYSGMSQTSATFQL

recombinant human GlyRS = target: T3, recombinant human GlyRS (Homo sapiens, UniProt P41250); experiment: Aminoacylation assay; assay type: biochemical; details: recombinant human GlyRS 200 nM, room temperature; FIG. 16
T3 sequence (P41250 55-739 limits assumed): T1 sequence (P41250 55-739 limits assumed)
Protocol: The aminoacylation assay was performed using recombinant human GlyRS (200 nM) proteins at room temperature. MLN4924 is an inhibitor of neddylation currently used in clinical trials for multiple solid and hematopoietic cancers. MLN4924 targets the E1 enzyme (UBA3) of neddylation.
Biochemical experiments were performed to study the inhibiting activity of GlySA to GlyRS. Aminoacylation assay was performed using recombinant human GlyRS (200 nM) proteins at room temperature (RT). MLN4924 is a known inhibitor of neddylation currently used in clinical trials for multiple solid and hematopoietic cancers. MLN4924 targets the E1 enzyme (UBA3) of neddylation.
The interactions of GlyRS to that of Ubc12^N8 were compared in the presence of DMSO or GlySA at 30° C. by biolayer interferometry (Octet).

SMILES: NCC(=O)NS(=O)(=O)OC[C@H]1O[C@@H](n2cnc3c(N)ncnc32)[C@H](O)[C@@H]1O [GlySA, glycylsulfamoyladenosine]
- inhibition of neddylation in MDA-MB-231 cells [1]: inhibits neddylation
- lung metastasis in mice (MDA-MB-231 cells): reduces lung metastasis
- GlyRS binding to activated NEDD8 E2 (Ubc12^N8) [2]: decreases GlyRS binding to activated NEDD8 E2
- NEDD8 E1 (UBA3) activation [3]: does not affect NEDD8 E1 (UBA3) activation
- inhibition of GlyRS aminoacylation (recombinant human GlyRS): inhibits GlyRS aminoacylation
